Binding data for 1 molecule are collected here from patent US20120190819A1 (MEDICAL RESEARCH COUNCIL, published 2012).

No constants are given. Whether binding was seen depends on the method and setting. In cells and extracts the contact can be indirect. Some entries that bind do so weakly or less than the wild type.

The target in assay [1] is T1, carboxymethylated papain on agarose beads (Calbiochem) (UniProt P00784).
T1 sequence (carboxymethylated, looked up): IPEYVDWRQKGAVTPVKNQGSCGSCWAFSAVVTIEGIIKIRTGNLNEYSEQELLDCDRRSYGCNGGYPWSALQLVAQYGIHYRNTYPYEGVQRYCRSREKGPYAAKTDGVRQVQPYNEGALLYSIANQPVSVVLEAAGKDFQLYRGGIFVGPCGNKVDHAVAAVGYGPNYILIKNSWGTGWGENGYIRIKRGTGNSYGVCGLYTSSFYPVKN
Kind of assay: papain-agarose pull-down, western blot. Background: Immunoblotting shows a protein as a band on a membrane.

Assay [2] deals with T1, carboxymethylated papain on agarose beads (Calbiochem). Kind of assay: papain-agarose pull-down, western blot (FIG. 4A).

B1: wild type Stefin A (human, recombinant) (other)
chain: MIPGGLSEAKPATPEIQEIVDKVKPQLEEKTNETYGKLEAVQYKTQVVAGTNYYIKVRAGDNKYMHLKVFKSLPGQNEDLVLTGYQVDKNKDDELTGF
notes: Expressed in E. coli from pET30a(+) with a hexa-histidine tag; also called SteA; Cystatin A
As for B1, the binding result in assay [1] and in assay [2] was “binds” each time.
